Source: PubChem BioAssay AID330 (DTP/NCI, 2004)
The list does not hold the whole screen: it gathers tests that were run many times, whatever their T/C, doses with no T/C, and many T/C values between a quarter and a half above the control. Further doses and runs are listed elsewhere. T/C: endpoint of the treated group in % of that of the vehicle group. Some entries give survivors of the animals treated and no T/C: the source files T/C as zero there, which appears to mark a toxic dose or a test without result, not a measured value. Some doses without a T/C left all or most animals alive at the check, yet need not have been tolerated: the source hardly ever lists a survival T/C far under the control, and the zero likely stands for such cases as well. Survivors were counted at the toxicity check, usually on the fifth day, unless a day is given; later deaths do not show. Schedules are NCI's codes, taken here to give the interval after Q, in days (D) or hours (H), and the number of doses after X. Some structures stand for samples that the source files as different forms (salt, stereo form or complex); doses refer to the form tested. For survival time, this PubChem deposit counts one and a half times the control or more as active, and values a quarter to a half above the control carry no call in these data; other NCI protocols may use other cut-offs. Some entries were tested several times; the values are given in rising order. Some T/C values carry the count of animals alive at the toxicity check (mostly the fifth day); without a count, all were alive then.

Test system: P388 leukemia ip, CD2F1 mice, survival T/C
Test: NCI In Vivo Anticancer Drug Screen. Data for tumor model P388 Leukemia (intraperitoneal) in CD2F1 (CDF1) mice
Settings: T/C endpoint: median survival time, higher T/C = longer survival

In the case of `O=C1c2ccccc2C(=O)c2c(NCCNCCO)ccc(NCCNCCO)c21`, the T/C (dose: 0.06 mg/kg/injection, schedule: Q04DX003 (ip), vehicle: saline) is reported as 135 % of control, the T/C (dose: 0.25 mg/kg/injection, schedule: Q01DX009 (ip), vehicle: Klucel (hydroxypropylcellulose) (HPC)) is reported as 146 % of control and the T/C (dose: 0.25 mg/kg/injection, schedule: Q01DX009 (ip), vehicle: water) is reported as 144 % of control. The T/C (dose: 0.5 mg/kg/injection, schedule: Q01DX009 (ip), vehicle: Klucel (hydroxypropylcellulose) (HPC)) was 146 % of control [5 of 6 alive], the T/C (dose: 2.0 mg/kg/injection, schedule: Q01DX009 (ip), vehicle: other) was 147 % of control and the T/C (dose: 2.0 mg/kg/injection, schedule: Q01DX009 (ip), vehicle: water, evaluated on day 30) was 163, 169, 190, 211 % of control. For the same molecule, the T/C (dose: 2.0 mg/kg/injection, schedule: Q01DX009 (ip), vehicle: water, evaluated on day 60) was 156 and 168 % of control, the T/C (dose: 2.0 mg/kg/injection, schedule: Q04DX003 (ip), vehicle: saline) was 137 % of control and the T/C (dose: 2.5 mg/kg/injection, schedule: Q01DX009 (ip), vehicle: saline, evaluated on day 30) was 193 % of control. For the same molecule, the T/C (dose: 2.5 mg/kg/injection, schedule: Q01DX009 (ip), vehicle: saline, evaluated on day 35) was 220 % of control, the T/C (dose: 2.5 mg/kg/injection, schedule: Q01DX009 (ip), vehicle: saline, evaluated on day 45) was 223 % of control and the T/C (dose: 2.5 mg/kg/injection, schedule: Q01DX009 (ip), vehicle: saline, evaluated on day 50) was 198 % of control. For the same molecule, the T/C (dose: 2.5 mg/kg/injection, schedule: Q01DX009 (ip), vehicle: water) was 144, 154, 158, 183, 185, 203, 238 % of control, the T/C (dose: 4.0 mg/kg/injection, schedule: Q01DX009 (ip), vehicle: saline with Tween-80, evaluated on day 30) was 183, 270, 275 % of control and the T/C (dose: 4.0 mg/kg/injection, schedule: Q01DX009 (ip), vehicle: saline with Tween-80, evaluated on day 35) was 212 % of control. The T/C (dose: 4.0 mg/kg/injection, schedule: Q01DX009 (ip), vehicle: water, evaluated on day 30) was 158, 163, 175, 184, 199, 200 % of control, the T/C (dose: 4.0 mg/kg/injection, schedule: Q01DX009 (ip), vehicle: water, evaluated on day 60) was 94 and 208 % of control and the T/C (dose: 4.0 mg/kg/injection, schedule: Q04DX003 (ip), vehicle: Klucel (hydroxypropylcellulose) (HPC)) was 137 % of control. For the same molecule, the T/C (dose: 4.0 mg/kg/injection, schedule: Q04DX003 (ip), vehicle: saline) was 144 % of control, the T/C (dose: 5.0 mg/kg/injection, schedule: Q01DX009 (ip), vehicle: saline, evaluated on day 30) was 170 % of control and the T/C (dose: 5.0 mg/kg/injection, schedule: Q01DX009 (ip), vehicle: saline, evaluated on day 35) was 321 % of control. The T/C (dose: 5.0 mg/kg/injection, schedule: Q01DX009 (ip), vehicle: saline, evaluated on day 45) was 274 % of control, the T/C (dose: 5.0 mg/kg/injection, schedule: Q01DX009 (ip), vehicle: saline, evaluated on day 50) was 218 % of control and the T/C (dose: 5.0 mg/kg/injection, schedule: Q01DX009 (ip), vehicle: water) was 150, 152, 157, 162, 174, 187, 192, 199, 213 % of control. For the same molecule, the T/C (dose: 6.25 mg/kg/injection, schedule: Q01DX005 (iv), vehicle: saline) was 133 % of control, the T/C (dose: 6.48 mg/kg/injection, schedule: Q01DX009 (sc), vehicle: saline) was 136 % of control and the T/C (dose: 7.78 mg/kg/injection, schedule: Q01DX005 (iv), vehicle: saline) was 131 % of control. The T/C (dose: 8.0 mg/kg/injection, schedule: Q01DX009 (ip), vehicle: saline with Tween-80, evaluated on day 30) was 190, 212, 276 % of control, the T/C (dose: 8.0 mg/kg/injection, schedule: Q01DX009 (ip), vehicle: saline with Tween-80, evaluated on day 35) was 266 % of control and the T/C (dose: 8.0 mg/kg/injection, schedule: Q01DX009 (ip), vehicle: water, evaluated on day 30) was 185, 196, 198, 200, 202, 207, 213, 214 % of control. For the same molecule, the T/C (dose: 8.0 mg/kg/injection, schedule: Q01DX009 (ip), vehicle: water, evaluated on day 60) was 234 % of control [9 of 10 alive], the survivor count (dose: 8.0 mg/kg/injection, schedule: Q01DX009 (ip), vehicle: water) was 10 of 10 and the T/C (dose: 8.0 mg/kg/injection, schedule: Q04DX003 (ip), vehicle: saline) was 145 % of control. For the same molecule, the T/C (dose: 10.0 mg/kg/injection, schedule: Q01DX005 (iv), vehicle: saline) was 131 % of control, the T/C (dose: 10.0 mg/kg/injection, schedule: Q01DX009 (ip), vehicle: saline, evaluated on day 10) was 103 % of control [2 of 6 alive] and the T/C (dose: 10.0 mg/kg/injection, schedule: Q01DX009 (ip), vehicle: saline, evaluated on day 30) was 117 % of control. For the same molecule, the T/C (dose: 10.0 mg/kg/injection, schedule: Q01DX009 (ip), vehicle: saline, evaluated on day 35) was 321 % of control, the T/C (dose: 10.0 mg/kg/injection, schedule: Q01DX009 (ip), vehicle: saline, evaluated on day 45) was 271 % of control and the T/C (dose: 10.0 mg/kg/injection, schedule: Q01DX009 (ip), vehicle: saline, evaluated on day 50) was 333 % of control [5 of 6 alive]. The T/C (dose: 10.0 mg/kg/injection, schedule: Q01DX009 (ip), vehicle: water) was 158, 168, 174, 177, 181, 189, 203, 208, 247 % of control, the T/C (dose: 10.4 mg/kg/injection, schedule: Q04DX003 (iv), vehicle: saline) was 127 % of control and the T/C (dose: 12.5 mg/kg/injection, schedule: Q01DX005 (iv), vehicle: saline) was 133 % of control. For the same molecule, the T/C (dose: 13.0 mg/kg/injection, schedule: Q04DX003 (ip), vehicle: saline) was 141 % of control, the T/C (dose: 16.0 mg/kg/injection, schedule: Q01DX009 (ip), vehicle: Klucel (hydroxypropylcellulose) (HPC)) was 129 % of control and the T/C (dose: 16.0 mg/kg/injection, schedule: Q01DX009 (ip), vehicle: saline with Tween-80, evaluated on day 30) was 91, 259, 275 % of control. The T/C (dose: 16.0 mg/kg/injection, schedule: Q01DX009 (ip), vehicle: saline with Tween-80, evaluated on day 35) was 332 % of control, the T/C (dose: 16.0 mg/kg/injection, schedule: Q01DX009 (ip), vehicle: water, evaluated on day 30) was 141, 205, 217, 220, 223, 230, 265, 272 % of control and the T/C (dose: 16.0 mg/kg/injection, schedule: Q01DX009 (ip), vehicle: water, evaluated on day 60) was 153 and 272 % of control. The T/C (dose: 16.0 mg/kg/injection, schedule: Q04DX003 (ip), vehicle: saline) was 130 and 148 % of control, the T/C (dose: 17.3 mg/kg/injection, schedule: Q04DX003 (iv), vehicle: saline, evaluated on day 45) was 133 % of control and the T/C (dose: 17.3 mg/kg/injection, schedule: Q04DX003 (iv), vehicle: saline, evaluated on day 60) was 137 % of control. For the same molecule, the survivor count (dose: 20.0 mg/kg/injection, schedule: Q01DX009 (ip), vehicle: distilled water + Tween-80) was 6 of 6, the T/C (dose: 20.0 mg/kg/injection, schedule: Q01DX009 (ip), vehicle: saline, evaluated on day 10) was 132 % of control and the T/C (dose: 20.0 mg/kg/injection, schedule: Q01DX009 (ip), vehicle: saline, evaluated on day 30) was 86 % of control. The T/C (dose: 20.0 mg/kg/injection, schedule: Q01DX009 (ip), vehicle: saline, evaluated on day 35) was 321 % of control, the T/C (dose: 20.0 mg/kg/injection, schedule: Q01DX009 (ip), vehicle: saline, evaluated on day 45) was 203 % of control and the T/C (dose: 20.0 mg/kg/injection, schedule: Q01DX009 (ip), vehicle: saline, evaluated on day 50) was 450 % of control. The T/C (dose: 20.0 mg/kg/injection, schedule: Q01DX009 (ip), vehicle: water) was 89, 166, 204, 211, 234, 238, 272, 277, 291 % of control, the T/C (dose: 20.0 mg/kg/injection, schedule: Q04DX003 (iv), vehicle: saline) was 127 % of control and the T/C (dose: 21.6 mg/kg/injection, schedule: Q01DX001 (iv), vehicle: saline) was 127 % of control. The T/C (dose: 21.6 mg/kg/injection, schedule: Q04DX003 (ip), vehicle: saline) was 152, 195, 227, 259 % of control, the T/C (dose: 24.0 mg/kg/injection, schedule: Q04DX003 (ip), vehicle: saline) was 127 % of control and the T/C (dose: 25.0 mg/kg/injection, schedule: Q04DX003 (ip), vehicle: Klucel (hydroxypropylcellulose) (HPC)) was 137 % of control [survivors not given]. The T/C (dose: 28.8 mg/kg/injection, schedule: Q04DX003 (iv), vehicle: saline, evaluated on day 45) was 140 % of control and the T/C (dose: 28.8 mg/kg/injection, schedule: Q04DX003 (iv), vehicle: saline, evaluated on day 60) was 149 % of control.
